{"source": "PubChem BioAssay AID504444", "about": "(National Center for Advancing Translational Sciences (NCATS), 2011)", "note": "About 7,500 (2.1%) of roughly 360,000 compounds were called active. Inconclusive results, whose numbers are uncertain, are shown with a selection of clear calls. Calls follow the shape of the dose curve; as a rule, active = well fitted inhibition curve with a large enough effect; inconclusive = small, poorly fitted or top-dose-only effect, or effect the other way; inactive = flat fitted curve, though single readings scatter. Where the call is inconclusive, the potency comes from a doubtful curve fit. % is scaled to controls: 0 for no effect and ±100 for the full control effect; potency is read from the fitted curve at half-maximal effect."}
{"test": "Nrf2 qHTS screen for inhibitors; also: nearly all actives have a fitted effect of over 60% in size", "conditions": "A549 ARE-Fluc reporter, luciferase luminescence, 18-24 h; activity change, negative = inhibition: at 46 µM (top of the series)", "in_short": "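Cells were seeded and rested 2 h, then exposed to compounds for 18-24 h. CellTiter-Fluor was read first as a viability measure. BugLite was added 15 min before the final luminescent read of ARE-luciferase activity in A549 cells.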"}
{"smiles": "CCOc1ccc(N(C(=O)c2snc(C(N)=O)c2N)C(C(=O)NC2CCCC2)C(C)C)cc1", "note": "(centres undefined)", "Potency": "inconclusive: 18.4 µM [falling, partial curve]"}
{"smiles": "COc1ccc(-c2cc(NCCc3ccncc3)n3ncnc3n2)cc1", "activity change, negative = inhibition": "inactive: -7.13%"}
{"smiles": "Cc1oc(C(=O)O)cc1CSCc1cc(C(=O)O)c(C)o1", "Potency": "inconclusive: 20.6 µM [activator, partial curve, poor fit]"}
{"smiles": "CC(C)CNC(=S)N1CCN(c2nc(-c3ccc(Cl)cc3)cs2)CC1", "Potency": "active: 18.4 µM"}
{"smiles": "CC(=O)n1cc(Nc2ccc([N+](=O)[O-])cc2)c2ccccc21", "activity change, negative = inhibition": "inactive: 10.3%"}
{"smiles": "CCn1c(=N)n(CC(=O)C23CC4CC(CC(C4)C2)C3)c2ccccc21", "Potency": "inconclusive: 0.259 µM [falling, partial curve, poor fit]"}
{"smiles": "O=C(Nc1ccc2oc(-c3ccccc3)nc2c1)c1ccco1", "Potency": "inconclusive: 2.31 µM [activator, full curve]"}
{"smiles": "O=C1C2C3C=CC(CC3)C2C(=O)N1/N=C/c1ccccc1O", "note": "(centres undefined)", "Potency": "inconclusive: 0.731 µM [falling, partial curve, poor fit]"}
{"smiles": "O=C(COc1ccccc1)Nc1nccs1", "Potency": "inconclusive: 1.03 µM [activator, full curve]"}
{"smiles": "O=C(CCN1CCC(c2cccs2)=N1)c1cccs1", "activity change, negative = inhibition": "inactive: 7.99%"}
{"smiles": "Cc1cccc(OCC(=O)NC(=S)NNC(=O)c2ccncc2)c1", "Potency": "inconclusive: 4.11 µM [falling, single point]"}
{"smiles": "COc1ccc(NC(=O)c2cccc(N3C(=O)C4C5CCC(C5)C4C3=O)c2)cc1", "note": "(centres undefined)", "Potency": "inconclusive: 29.1 µM [falling, single point]"}
{"smiles": "COc1ccc(N2CCN(CCCNC(=O)c3cc4sccc4n3C)CC2)cc1", "Potency": "inconclusive: 0.0517 µM [falling, full curve, poor fit]"}
{"smiles": "COc1ccc2c(CNC3CCCCCC3)c(C(=O)O)n(Cc3ccccc3F)c2c1", "activity change, negative = inhibition": "inactive: 23.2%"}
{"smiles": "c1ccc2c(c1)[nH]c1c(NCC3CCCO3)ncnc12", "note": "(centres undefined)", "Potency": "active: 14.6 µM"}
{"smiles": "Cc1c(C(=O)OC2CCCCC2)[nH]c2c1C(=O)CC(c1ccc(C(C)(C)C)cc1)C2", "note": "(centres undefined)", "activity change, negative = inhibition": "inactive: 8.4%"}
{"smiles": "Cc1cccc(C(=O)NC2=NCCS2)c1", "Potency": "inconclusive: 0.58 µM [activator, partial curve, poor fit]"}
{"smiles": "O=C1NC(=S)N/C1=C/c1ccc2c(c1)OCO2", "Potency": "active: 13 µM"}
{"smiles": "O=C(Nc1ccc2c(c1)C(=O)OC2)c1ccc(Cl)cc1Cl", "Potency": "inconclusive: 29.1 µM [falling, single point]"}
{"smiles": "CCOC(=O)c1cnc2ccc(C)cc2c1Nc1ccc(N(CC)CC)cc1", "Potency": "inconclusive: 29.1 µM [falling, single point]"}
{"smiles": "Cc1ccc(N2CCN(C(=O)CNS(=O)(=O)c3ccc(Br)s3)CC2C)cc1", "note": "(centres undefined)", "Potency": "inconclusive: 23.1 µM [falling, single point]"}
{"smiles": "Fc1ccc(Nc2ncnc3c2nc2n3CCCCC2)c(F)c1", "Potency": "inconclusive: 2.06 µM [activator, full curve]"}
{"smiles": "CCN1/C(=C/c2ccc3cc(C)ccc3[n+]2CC)Sc2ccccc21", "Potency": "active: 0.731 µM"}
{"smiles": "Cc1ccc(C(=O)Nc2ccc(C(=O)N3CCCCC3C)cc2)cc1", "note": "(centres undefined)", "Potency": "inconclusive: 9.2 µM [falling, partial curve, poor fit]"}
{"smiles": "c1csc(Cn2nnnc2CN2CCN(c3nc4ccccc4s3)CC2)c1", "Potency": "inconclusive: 25.9 µM [falling, partial curve, poor fit]"}
{"smiles": "CC(C)COC(=O)N1C[C@H](O)C[C@H]1C(=O)Nc1ccc(Cl)cc1", "Potency": "inconclusive: 2.06 µM [falling, single point]"}
{"smiles": "COc1ccc(CNC(=S)N2CCN(Cc3ccccc3)CC2)cc1", "activity change, negative = inhibition": "inactive: -15.7%"}
{"smiles": "O=C(OCc1ccccc1)c1cccc(-c2nnc(-c3ccccc3)o2)c1", "Potency": "inconclusive: 20.6 µM [activator, single point]"}
{"smiles": "c1ccc(Nc2ccccc2)cc1", "activity change, negative = inhibition": "inactive: -2.74%"}
{"smiles": "CC(C)(C)OC(=O)NCc1nnc(-c2cc3ccccc3[nH]2)o1", "Potency": "inconclusive: 2.59 µM [falling, single point]"}
{"smiles": "Cc1ccc2nc(CSc3nnc(-c4ccco4)o3)cc(=O)n2c1", "activity change, negative = inhibition": "inactive: 11.1%"}
{"smiles": "Cc1ccc(C)c(OCCCn2c(-c3ccc(Cl)cc3)nc3ccccc3c2=O)c1", "activity change, negative = inhibition": "inactive: 2.79%"}
{"smiles": "CCCCC(=O)OCc1nc2ccccc2s1", "Potency": "inconclusive: 25.9 µM [activator, single point]"}
{"smiles": "CCOc1ccc(CCNC(=O)CS(=O)Cc2nc(-c3ccccc3C)oc2C)cc1OCC", "note": "(centres undefined)", "Potency": "inconclusive: 4.11 µM [falling, full curve, poor fit]"}
{"smiles": "CCC(C)NCCCOc1ccc(Cl)cc1C(C)(C)C", "note": "(centres undefined)", "activity change, negative = inhibition": "inactive: -3.62%"}
{"smiles": "CCCCc1nnc(NC(=O)C2=COCCO2)s1", "Potency": "inconclusive: 1.84 µM [activator, partial curve, poor fit]"}
{"smiles": "C=CCn1cc(C(=O)NCc2ccco2)c(=O)c2cc(S(=O)(=O)N3CCCCCC3)ccc21", "Potency": "active: 11.6 µM"}
{"smiles": "CCOc1cccc(CNCCO)c1OCc1ccc(Cl)cc1Cl", "activity change, negative = inhibition": "inactive: -2.44%"}
{"smiles": "Cc1nn(C)c(C(=O)NC(=S)Nc2ccc([N+](=O)[O-])cc2)c1Cl", "Potency": "inconclusive: 29.1 µM [falling, single point]"}
{"smiles": "Clc1ccccc1CN(Cc1ccco1)Cc1nnnn1C1CCCC1", "Potency": "inconclusive: 29.1 µM [falling, single point]"}
{"smiles": "COc1ccc(NS(=O)(=O)c2ccc3ccccc3c2)c2ncccc12", "Potency": "inconclusive: 2.06 µM [falling, partial curve, poor fit]"}
{"smiles": "O=C(CSc1ncn[nH]1)NNC(=O)c1ccccc1", "activity change, negative = inhibition": "inactive: 5.15%"}
{"smiles": "O=Cc1[nH]c2ccccc2c1N(C(=O)CCl)c1ccc([N+](=O)[O-])cc1", "activity change, negative = inhibition": "inactive: -10.2%"}
{"smiles": "COc1ccccc1N(C)S(=O)(=O)c1ccc(Cl)c(C(=O)NNC(=O)c2ccccc2O)c1", "activity change, negative = inhibition": "inactive: -6.77%"}
{"smiles": "Nc1ccccc1SCc1cn2ccccc2n1", "Potency": "inconclusive: 2.91 µM [activator, full curve]"}
{"smiles": "O=C(c1ccc2c(c1)OCO2)N1CCC2(CC1)Oc1ccc(Cl)cc1C(=O)C21CC(c2cccnc2)=NO1", "note": "(centres undefined)", "Potency": "inconclusive: 29.1 µM [falling, single point]"}
{"smiles": "COc1cc(-c2nnc3sc(-c4cccs4)nn23)cc(OC)c1OC", "Potency": "inconclusive: 0.58 µM [falling, full curve, poor fit]"}
{"smiles": "O=C(N/N=C/c1ccc2c(c1)OCCO2)c1ccncc1", "Potency": "inconclusive: 20.6 µM [activator, single point]"}
{"smiles": "CC(C)(C)c1ccc(C(=O)Oc2ccc3c(c2)OCC3=O)cc1", "Potency": "inconclusive: 20.6 µM [falling, single point]"}
{"smiles": "O=C(Cc1ccccc1)c1c[nH]c(C(=O)NCCCN2CCOCC2)c1", "activity change, negative = inhibition": "inactive: -9.5%"}
{"smiles": "Cc1cc2ncc(-c3cccs3)nc2cc1C", "Potency": "inconclusive: 2.06 µM [activator, full curve]"}
{"smiles": "CCOC(=O)c1[nH]c(C)c(C(=O)OCC(=O)NC(=O)NC(C)(C)C)c1C", "activity change, negative = inhibition": "inactive: 10.2%"}
{"smiles": "COCCCNC(=O)c1ccc(N2CCCC2)c(NS(=O)(=O)c2ccc(C)cc2)c1", "Potency": "inconclusive: 8.2 µM [activator, partial curve, poor fit]"}
{"smiles": "COc1ccc(OC)c(C(=O)CSc2nnc(-c3cccs3)o2)c1", "Potency": "inconclusive: 14.6 µM [falling, single point]"}
{"smiles": "CCc1cccc(C)c1NC(=O)COCc1cc(-c2ccc3c(c2)OCO3)on1", "Potency": "inconclusive: 14.6 µM [falling, partial curve, poor fit]"}
{"smiles": "CC(=O)c1sc(NC(=O)c2cc(=O)c3ccccc3o2)nc1C", "Potency": "inconclusive: 1.16 µM [activator, full curve]"}
{"smiles": "COC(=O)/C(C#N)=C/c1c(N2CCN(c3ccccc3)CC2)nc2c(C)cccn2c1=O", "Potency": "inconclusive: 16.4 µM [falling, single point]"}
{"smiles": "Cc1cc(C)c(Cn2c(C)c(CNCc3ccccc3C)c(C(=O)O)c2C)c(C)c1", "Potency": "inconclusive: 32.6 µM [activator, single point]"}
{"smiles": "O=c1c2c3c(sc2nc(NCCO)n1CCc1ccccc1)CCCCC3", "activity change, negative = inhibition": "inactive: -4.47%"}
{"smiles": "CCOC(=O)c1ccc(COc2ccc(C(C)C)cc2)o1", "Potency": "inconclusive: 0.651 µM [activator, full curve]"}
{"smiles": "Cc1ccccc1CNCCCSc1nnnn1-c1ccccc1", "activity change, negative = inhibition": "inactive: 18.8%"}
{"smiles": "COc1ccc(N2CCN(S(=O)(=O)/C=C/c3ccccc3)CC2)cc1", "Potency": "inconclusive: 0.0041 µM [falling, full curve, poor fit]"}
{"smiles": "CCc1c(C(=O)NCCc2ccc(OC)c(OC)c2)[nH]c(C)c1C(C)=O", "Potency": "inconclusive: 18.4 µM [falling, partial curve, poor fit]"}
{"smiles": "CCCCCC(=O)N[C@@H](c1ccccc1)[C@@H](O)C(=O)O[C@H]1C[C@@]2(O)[C@@H](OC(=O)c3ccccc3)C3[C@](C)(C(=O)[C@H](OC(C)=O)C(=C1C)C2(C)C)[C@@H](O)C[C@H]1OC[C@@]31OC(C)=O", "note": "(some centres undefined)", "Potency": "inconclusive: 29.1 µM [falling, single point]"}
{"smiles": "N#Cc1ccccc1OCC(=O)OCCCOC(=O)COc1ccccc1C#N", "Potency": "inconclusive: 23.1 µM [activator, partial curve, poor fit]"}
{"smiles": "O=C(NCC1CCCO1)C(c1cccs1)N(Cc1cccs1)C(=O)c1ccc(-c2ccccc2)[nH]1", "note": "(centres undefined)", "Potency": "inconclusive: 29.1 µM [falling, single point]"}
{"smiles": "CCOc1ccc(S(=O)(=O)c2cn(Cc3ccc(C)cc3)c3ccc(OC)cc3c2=O)cc1", "activity change, negative = inhibition": "inactive: 12.4%"}
{"smiles": "CCOc1ccccc1N(CC(=O)NCCSc1ccccn1)S(=O)(=O)c1ccc(C)cc1", "Potency": "inconclusive: 29.1 µM [falling, single point]"}
{"smiles": "O=C(NCc1cccc(Br)c1)c1ccc(-n2cnc3cccnc32)cc1", "Potency": "inconclusive: 7.31 µM [falling, partial curve, poor fit]"}
